These are yes or no findings as the source states them, for the method shown. Binding seen in cells or lysates may run through a third protein. Some entries that bind do so weakly or less than the wild type.
Target: Annexin A2 (human (endogenous in Ishikawa and HEC-1A)) (UniProt P07355)
Test: co-IP; RIPA lysates of Ishikawa and HEC-1A (and CaoV3) cells; precipitated with mouse anti-ANXA2 monoclonal or goat anti-HE4 polyclonal antibody (3 h, 4 °C) and protein A/G PLUS-Agarose overnight at 4 °C; blotted with anti-HE4 and anti-ANXA2; mouse or goat IgG as negative control; repeated three times

Chains of the proteins cited; added tags and fusions are not shown.
UniProt P07355: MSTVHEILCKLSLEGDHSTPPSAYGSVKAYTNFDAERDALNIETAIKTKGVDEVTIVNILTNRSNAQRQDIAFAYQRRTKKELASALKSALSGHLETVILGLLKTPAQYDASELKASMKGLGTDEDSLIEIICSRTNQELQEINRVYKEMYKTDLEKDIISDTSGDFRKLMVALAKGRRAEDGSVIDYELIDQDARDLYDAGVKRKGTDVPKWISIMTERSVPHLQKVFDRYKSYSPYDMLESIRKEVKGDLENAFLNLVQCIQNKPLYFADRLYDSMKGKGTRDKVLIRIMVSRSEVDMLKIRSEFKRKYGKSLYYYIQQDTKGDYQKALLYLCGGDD

B1: Human epididymis protein 4 (protein, UniProt Q14508 31-124)
chain: EKTGVCPELQADQNCTQECVSDSECADNLKCCSAGCATFCSLPNDKEGSCPQVNINFPQLGLCRDQCQVDSQCPGQMKCCRNGCGKVSCVTPNF
binding: binds

— publication PMC4567805
